Assay results: PMC6506827
Results are given in words; binding and its absence hold for the method and conditions named.

Molecular target: PghL hydrolase from Bacillus subtilis (B. subtilis) (UniProt O31815)
Experiment: SEC; analytical size exclusion chromatography, room temperature, protein at 0.05 mg/mL; both purified

B1: PghL hydrolase from Bacillus subtilis (enzyme, UniProt O31815 47-252)
chain: SSIYAEDVYQNFEELKNNEDPSDYGVVTKETGSPVLVLAIHGGGIEGGTSEVARELSKEYSMYLFEGLKSAGNSVLHITSTHFDEPRALKMTGNHEYVISLHGYAEEDQQIEVGGTDRVRAADLVEKLQHAGFPAVLLNMDHPHAGVSPNNIANKSKTGLSIQIEMSTGFRKSLFGIFSLKSRAVTQNERFYEFTEVMFRFLKNSY
- binding: no binding (tested: 0.05 mg·mL^−1)
